Results deposited as PubChem BioAssay AID1259314 (Drosophila RNAi Screening Center, 2017).

- Screen: 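Genes whose knock-down alters cell survival under toxic manganese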 (primary screen)
- Cells: Drosophila S2R+ cells
- Reagents: long dsRNA against Drosophila genes
- Timing: 5 days (4 days knock-down, then 1 day metal exposure)
- Treatment: manganese chloride added to 15 mM for 24 hours
- Measured: 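Luciferase ATP signal used as a proxy for viable cell number, reported as one averaged z-score per dsRNA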
- Scale: mean ATP z-score: higher = more ATP than the plate average, more viable cells under manganese
- Call rule: 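Called active when the mean ATP z-score is above 1.5 or below -1.5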
- Calls: active = strong ATP change, up or down; inactive = no strong ATP change
The whole screen tested about 3,100 reagents; below is a part drawn at random. In the full data, 289 (9.3%) got an active call. 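Active includes both higher and lower ATP than plate average; check the z-score sign for direction.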 Names joined by + are all predicted targets of the reagent. No sequences are given here. Not given: the amount of reagent.

gene	amplicon	mean ATP z-score	Call
Kr-h2 (GeneID 33859)	DRSC03356	1.65	active
Kr-h2 (GeneID 33859)	DRSC39752	0.135	inactive
Cad89D (GeneID 42006)	DRSC15022	0.442	inactive
Cad89D (GeneID 42006)	DRSC39775	-0.644	inactive
Marf (GeneID 31581)	DRSC28101	-2.95	active
MFS9 (GeneID 42426)	DRSC15560	-0.397	inactive
Ir52a (GeneID 36715)	DRSC06262	-0.913	inactive
ClC-a (GeneID 41428)	DRSC14947	-0.533	inactive
ClC-a (GeneID 41428)	DRSC14948	0.746	inactive
ClC-a (GeneID 41428)	DRSC16142	-0.701	inactive
Hip14 (GeneID 39747)	DRSC10570	-0.0743	inactive
Gr8a (GeneID 31865)	DRSC18043	0.171	inactive
Ostgamma (GeneID 34137)	DRSC03074		inactive
Ostgamma (GeneID 34137)	DRSC39487	-1.02	inactive
PGRP-SC1a (GeneID 35859)	DRSC06482	-0.0731	inactive
CG3649 (GeneID 37626)	DRSC04400	0.0545	inactive
CG3649 (GeneID 37626)	DRSC28728	-0.327	inactive
Or43a (GeneID 35644)	DRSC07485	-0.765	inactive
rg (GeneID 44531)	DRSC17726	0.211	inactive
rg (GeneID 44531)	DRSC18049	1.07	inactive
rg (GeneID 44531)	DRSC29144	-0.441	inactive
rg (GeneID 44531)	DRSC36613	0.335	inactive
rg (GeneID 44531)	DRSC36614	-0.636	inactive
ft (GeneID 33627)	DRSC00819	-0.751	inactive
ft (GeneID 33627)	DRSC37550	0.0722	inactive
l(2)k05819 (GeneID 33644)	DRSC00826	-0.246	inactive
l(2)k05819 (GeneID 33644)	DRSC39612	-0.38	inactive
emb (GeneID 34167)	DRSC03528	5.62	active
MFS16 (GeneID 37427)	DRSC04051	0.532	inactive
MFS16 (GeneID 37427)	DRSC26536	-0.404	inactive
CG17841 (GeneID 31965)	DRSC17737	1.56	active
CG17841 (GeneID 31965)	DRSC28821	1.1	inactive
Cnx14D + Cnx99A	DRSC16610	0.214	inactive
Gr68a (GeneID 39324)	DRSC10803	-1.2	inactive
Gr68a (GeneID 39324)	DRSC39819	-0.367	inactive
Hk (GeneID 31955)	DRSC24985	2.16	active
Hk (GeneID 31955)	DRSC39129	0.141	inactive
CG9864 (GeneID 37287)	DRSC07346	-0.461	inactive
CG9864 (GeneID 37287)	DRSC28765	0.308	inactive
CG8237 (GeneID 35891)	DRSC07119	0.827	inactive
CG8237 (GeneID 35891)	DRSC26686	-1.35	inactive
Sh (GeneID 32780)	DRSC19785	-0.0935	inactive
Sh (GeneID 32780)	DRSC20055	1.91	active
Sh (GeneID 32780)	DRSC25790	-0.0811	inactive
pasi2 (GeneID 41113)	DRSC16380	1.3	inactive
pasi2 (GeneID 41113)	DRSC39713	-1.35	inactive
Octalpha2R (GeneID 42258)	DRSC13319	-0.582	inactive
Octalpha2R (GeneID 42258)	DRSC15314	-0.142	inactive
Coq2 (GeneID 40988)	DRSC29659	-1.89	active
Coq2 (GeneID 40988)	DRSC39437	-1.27	inactive
CG6790 (GeneID 41388)	DRSC16117	0.032	inactive
CG9706 (GeneID 39876)	DRSC11095	-0.335	inactive
CG9706 (GeneID 39876)	DRSC39822	-0.382	inactive
wgn (GeneID 32849)	DRSC19998	-0.579	inactive
wgn (GeneID 32849)	DRSC39695	1.16	inactive
Fur1 (GeneID 47220)	DRSC13707	-0.766	inactive
Fur1 (GeneID 47220)	DRSC16676	-0.428	inactive
CG7342 (GeneID 42335)	DRSC16230	-0.711	inactive
CG7342 (GeneID 42335)	DRSC39501	-0.776	inactive
CG5404 (GeneID 41901)	DRSC28832	-0.97	inactive
CG5404 (GeneID 41901)	DRSC39809	-0.201	inactive
Or69a (GeneID 2768964)	DRSC11243	-0.84	inactive
Or69a (GeneID 2768964)	DRSC25967	-0.216	inactive
Gr64b + Gr64c	DRSC08444	-0.453	inactive
Gr64b + Gr64c	DRSC08445	-1.16	inactive
Gr64b + Gr64c	DRSC27568	-0.236	inactive
Gr21a (GeneID 33251)	DRSC00366	1.42	inactive
Gr21a (GeneID 33251)	DRSC28583	-0.00492	inactive
SerT (GeneID 37895)	DRSC04655	0.255	inactive
SerT (GeneID 37895)	DRSC28934	-0.653	inactive
GluRIID (GeneID 44483)	DRSC16723	1.87	active
GluRIID (GeneID 44483)	DRSC24866	0.903	inactive
mys (GeneID 44885)	DRSC18799	-0.286	inactive
mys (GeneID 44885)	DRSC29061	0.5	inactive
mthl13 (GeneID 246395)	DRSC05238	0.019	inactive
CG8399 (GeneID 36768)	DRSC07163	-0.681	inactive
CG8399 (GeneID 36768)	DRSC39793	-0.527	inactive
Nup98-96 (GeneID 42816)	DRSC14209	0.119	inactive
Nup98-96 (GeneID 42816)	DRSC14210	-1.09	inactive
Tmep (GeneID 38185)	DRSC08215	-1.57	active
Tmep (GeneID 38185)	DRSC26652	-0.0453	inactive
Picot (GeneID 36865)	DRSC07508	1.07	inactive
Picot (GeneID 36865)	DRSC24256	0.163	inactive
Sema1a (GeneID 34192)	DRSC03433	-0.0661	inactive
dome (GeneID 32976)	DRSC19583	1.18	inactive
dome (GeneID 32976)	DRSC36979	0.323	inactive
dome (GeneID 32976)	DRSC36980	-0.138	inactive
Npc1b (GeneID 33072)	DRSC20488	0.227	inactive
Npc1b (GeneID 33072)	DRSC39575	0.322	inactive
mAChR-B (GeneID 40955)	DRSC16345	-0.953	inactive
mAChR-B (GeneID 40955)	DRSC26738	-0.587	inactive
nAChRbeta1 (GeneID 38545)	DRSC08097	-0.364	inactive
nAChRbeta1 (GeneID 38545)	DRSC08728	1.34	inactive
GABA-B-R1 (GeneID 34878)	DRSC22038	0.0883	inactive
GABA-B-R1 (GeneID 34878)	DRSC39785	-0.217	inactive
Or67c (GeneID 39189)	DRSC11242	-1.15	inactive
Or67c (GeneID 39189)	DRSC39762	-1.58	active
kcc (GeneID 37800)	DRSC04316	-0.525	inactive
kcc (GeneID 37800)	DRSC04516	1.06	inactive
CG31121 (GeneID 42975)	DRSC15361	-1.26	inactive
CG31121 (GeneID 42975)	DRSC15363	1.15	inactive
egh (GeneID 31239)	DRSC18771	0.244	inactive
egh (GeneID 31239)	DRSC29898	-0.717	inactive
santa-maria (GeneID 34024)	DRSC00994	0.151	inactive
santa-maria (GeneID 34024)	DRSC02180	0.405	inactive
Or22a (GeneID 33335)	DRSC26009	-0.735	inactive
CG13784 (GeneID 34003)	DRSC00974	1.03	inactive
CG5850 (GeneID 34327)	DRSC02905	-1.34	inactive
CG5850 (GeneID 34327)	DRSC39491	0.214	inactive
Sema5c (GeneID 37066)	DRSC11279	-1.32	inactive
Sema5c (GeneID 37066)	DRSC26621	0.648	inactive
Or85f (GeneID 41119)	DRSC16769	0.298	inactive
Or85f (GeneID 41119)	DRSC39742	1.08	inactive
CG34109 (GeneID 4379890)	DRSC02225	-0.389	inactive
CG34109 (GeneID 4379890)	DRSC26977	0.492	inactive
CG34109 (GeneID 4379890)	DRSC30104	-0.513	inactive
Nup93-2 (GeneID 41804)	DRSC16221	0.327	inactive
fra (GeneID 36377)	DRSC07621	-0.303	inactive
Ir21a + asRNA:CR43609	DRSC00528	0.191	inactive
mew (GeneID 32275)	DRSC18971	-0.341	inactive
mew (GeneID 32275)	DRSC20352	-0.636	inactive
CG10051 (GeneID 37222)	DRSC05959	-1.68	active
Or67a (GeneID 39109)	DRSC11240	-0.94	inactive
Elo68beta (GeneID 39245)	DRSC09860	1.43	inactive
Or35a (GeneID 34918)	DRSC03389	-0.0192	inactive
Or35a (GeneID 34918)	DRSC39514	-0.805	inactive
CG5554 (GeneID 37775)	DRSC04513	1.19	inactive
CG5554 (GeneID 37775)	DRSC25559	-0.113	inactive
CG9304 (GeneID 37500)	DRSC04538	0.0854	inactive
CG9304 (GeneID 37500)	DRSC26210	-0.495	inactive
CG8249 (GeneID 36742)	DRSC07125	-0.256	inactive
CG8249 (GeneID 36742)	DRSC39776	0.153	inactive
Ctr1A (GeneID 31601)	DRSC18336	-1.47	inactive
Asph (GeneID 36778)	DRSC06783	1.39	inactive
Asph (GeneID 36778)	DRSC29507	-1.01	inactive
CG30340 (GeneID 246550)	DRSC05167	-0.31	inactive
bon + CG15923	DRSC39557	-0.378	inactive
CG10353 (GeneID 32148)	DRSC19354	-0.338	inactive
CG10353 (GeneID 32148)	DRSC29888	0.0724	inactive
klar (GeneID 38067)	DRSC22393	0.298	inactive

Copied from the list:
Under “mean ATP z-score”, MFS16 (GeneID 37427) [DRSC04051] is entered as 0.532
For “mean ATP z-score”, santa-maria (GeneID 34024) [DRSC02180] is entered as 0.405
CG8249 (GeneID 36742) [DRSC07125], Call → inactive
Value for Tmep (GeneID 38185) [DRSC26652] in “mean ATP z-score”: -0.0453
For “Call”, Gr64b + Gr64c [DRSC08444] is entered as inactive
Ostgamma (GeneID 34137) [DRSC39487], mean ATP z-score = -1.02
